Reference: PubChem BioAssay AID588343 (Broad Institute, 2011)
Among all 1,200 compounds or so, about 650 (54%) were called active. So high a share suggests a set chosen from earlier hits. This list was built around the results that the source calls inconclusive (neither active nor inactive); the mix of calls is not that of the screen.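 How the source made its calls: active means signal-lowering curve whose fitted half-maximal concentration is at or below ten times the top valid dose tested; inconclusive means flat curve with 30 to 70% inhibition, or poor fit; inactive means signal increase, flat within 30%, or potency beyond limit.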

Assay: inhibitors of LMP1-driven NF-kB reporter, dose response, cell-based, HEK293, luciferase, cherry-pick (AID 588343);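 further: 0% = median of neutral control wells and -100% = MG132 positive control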
Conditions: HEK293 LMP1 TES2 NF-kB luciferase reporter, 16 h; at 35 µM (top of the series)

Row | SMILES | activity change, negative = inhibition
1 | CCC(=O)O[C@H]1CC[C@H]2[C@@H]3CCC4=CC(=O)CC[C@]4(C)[C@H]3CC[C@]12C | inconclusive: -11.9%
2 | CN1CCc2cc3c(cc2[C@H]1[C@@H]1OC(=O)c2c1ccc1c2OCO1)OCO3 | inconclusive: 47%
